Source: patent US20130059773A1, “COMPOUNDS FOR THE TREATMENT OF INFLAMMATION AND NEUTROPENIA” (priority 2010, published 2013)
No constants are given. Whether binding was seen depends on the method and setting. In cells and extracts the contact can be indirect. Some binding calls cover weakened binding; strength is not graded here.

Amino acid sequences for entries named in this document (tags omitted). A change or cut given only in a name is not applied to a line headed by its entry.
UniProt Q14790: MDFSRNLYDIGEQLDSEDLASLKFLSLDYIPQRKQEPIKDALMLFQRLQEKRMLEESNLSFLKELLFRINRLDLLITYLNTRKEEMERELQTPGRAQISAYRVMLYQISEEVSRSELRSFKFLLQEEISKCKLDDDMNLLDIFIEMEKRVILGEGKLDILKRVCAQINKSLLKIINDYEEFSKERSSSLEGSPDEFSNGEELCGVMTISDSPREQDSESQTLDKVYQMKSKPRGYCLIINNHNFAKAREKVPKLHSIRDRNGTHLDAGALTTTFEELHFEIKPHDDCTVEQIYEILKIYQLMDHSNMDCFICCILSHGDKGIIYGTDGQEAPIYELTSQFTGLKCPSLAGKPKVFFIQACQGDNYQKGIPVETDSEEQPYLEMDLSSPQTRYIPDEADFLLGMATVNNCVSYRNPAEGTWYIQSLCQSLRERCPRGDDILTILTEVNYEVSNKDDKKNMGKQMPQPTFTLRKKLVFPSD
UniProt P55211: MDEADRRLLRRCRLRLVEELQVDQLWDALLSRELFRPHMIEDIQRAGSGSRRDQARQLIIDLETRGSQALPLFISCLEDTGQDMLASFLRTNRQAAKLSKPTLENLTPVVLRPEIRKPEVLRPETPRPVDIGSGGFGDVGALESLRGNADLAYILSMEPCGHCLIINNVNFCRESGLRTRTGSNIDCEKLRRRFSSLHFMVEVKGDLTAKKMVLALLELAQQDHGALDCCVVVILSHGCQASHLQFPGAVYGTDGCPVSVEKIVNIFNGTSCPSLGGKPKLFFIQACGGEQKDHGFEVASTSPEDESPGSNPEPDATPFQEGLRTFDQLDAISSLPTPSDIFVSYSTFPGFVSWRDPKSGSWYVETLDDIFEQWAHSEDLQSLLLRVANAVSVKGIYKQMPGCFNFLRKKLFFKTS
UniProt P12004: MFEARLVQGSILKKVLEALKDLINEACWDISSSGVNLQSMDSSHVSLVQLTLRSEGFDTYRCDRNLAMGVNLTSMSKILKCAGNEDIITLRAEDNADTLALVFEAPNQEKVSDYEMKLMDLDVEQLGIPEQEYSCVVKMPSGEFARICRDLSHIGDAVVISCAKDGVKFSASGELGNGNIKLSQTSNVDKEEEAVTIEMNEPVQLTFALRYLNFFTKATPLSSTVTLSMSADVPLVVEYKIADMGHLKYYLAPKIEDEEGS

How the values were obtained:
procaspase-10 (human) [1] = target: T1, procaspase-10 (human) (UniProt Q92851); test: co-immunoprecipitation from neutrophil cytosol, western blot
T1 sequence (looked up): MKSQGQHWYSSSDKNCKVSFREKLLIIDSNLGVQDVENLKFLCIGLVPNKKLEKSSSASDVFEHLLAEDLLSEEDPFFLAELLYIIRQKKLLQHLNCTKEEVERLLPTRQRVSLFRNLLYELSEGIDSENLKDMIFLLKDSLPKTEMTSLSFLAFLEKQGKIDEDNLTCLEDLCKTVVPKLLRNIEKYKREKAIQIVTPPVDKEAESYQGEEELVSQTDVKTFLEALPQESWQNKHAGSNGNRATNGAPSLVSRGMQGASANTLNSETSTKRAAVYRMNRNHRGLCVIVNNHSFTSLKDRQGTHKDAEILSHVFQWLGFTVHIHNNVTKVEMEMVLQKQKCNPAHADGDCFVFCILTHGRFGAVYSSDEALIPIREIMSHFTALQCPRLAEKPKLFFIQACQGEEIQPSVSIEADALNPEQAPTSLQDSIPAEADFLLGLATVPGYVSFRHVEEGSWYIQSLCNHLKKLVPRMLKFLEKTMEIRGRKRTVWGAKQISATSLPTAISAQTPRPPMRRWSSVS

procaspase-8 (human) [2] = target: procaspase-8 (human) (UniProt Q14790); test: as above
procaspase-9 (human) [3] = target: procaspase-9 (human) (UniProt P55211); test: as above
procaspase-10 (human) [4] = target: T1, procaspase-10 (human); test: co-immunoprecipitation from neutrophil cytosol (discussion of the results)
procaspase-3 (human) [5] = target: T2, procaspase-3 (human) (UniProt P42574); test: as above
T2 sequence (looked up): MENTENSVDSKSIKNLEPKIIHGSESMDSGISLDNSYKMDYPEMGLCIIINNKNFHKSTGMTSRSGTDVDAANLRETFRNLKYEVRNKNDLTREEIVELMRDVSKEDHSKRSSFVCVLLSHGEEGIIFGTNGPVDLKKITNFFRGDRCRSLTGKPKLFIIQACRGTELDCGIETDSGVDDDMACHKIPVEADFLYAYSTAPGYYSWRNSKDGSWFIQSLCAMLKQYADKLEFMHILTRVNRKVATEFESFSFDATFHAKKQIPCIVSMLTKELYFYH

procaspase-8 (human) [6] = target: procaspase-8 (human) (UniProt Q14790); test: as above
procaspase-9 (human) [7] = target: procaspase-9 (human) (UniProt P55211); test: as above
procaspase-10 (human) [8] = target: T1, procaspase-10 (human); test: co-immunoprecipitation from neutrophil cytosol (anti-PCNA IP, western blot) and reciprocal anti-procaspase IP
procaspase-3 (human) [9] = target: T2, procaspase-3 (human); test: as above
procaspase-8 (human) [10] = target: procaspase-8 (human) (UniProt Q14790); test: as above
procaspase-9 (human) [11] = target: procaspase-9 (human) (UniProt P55211); test: as above

Measured: binding

Proliferating Cell Nuclear Antigen (PCNA), wild type, cellular (cytosolic PCNA of human neutrophils) (from UniProt P12004 1-261)
binds: all assays above
